Results taken from article PMC12013442.
These are yes or no findings as the source states them, for the method shown. For some assays here: Binding seen in cells or lysates may run through a third protein. Some results given as binding are weak or reduced against the parent protein; the word gives no strength.

By UniProt entry, the sequences of proteins in these tests, tags left out. Residues count along the entry.
UniProt P03186, residues 1-235: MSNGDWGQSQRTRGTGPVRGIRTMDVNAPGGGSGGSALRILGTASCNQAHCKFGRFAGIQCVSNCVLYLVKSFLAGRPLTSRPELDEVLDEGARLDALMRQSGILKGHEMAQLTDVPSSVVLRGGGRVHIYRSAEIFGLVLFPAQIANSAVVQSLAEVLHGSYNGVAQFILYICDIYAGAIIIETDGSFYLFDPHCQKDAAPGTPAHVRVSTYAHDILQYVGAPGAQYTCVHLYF
UniProt O94874: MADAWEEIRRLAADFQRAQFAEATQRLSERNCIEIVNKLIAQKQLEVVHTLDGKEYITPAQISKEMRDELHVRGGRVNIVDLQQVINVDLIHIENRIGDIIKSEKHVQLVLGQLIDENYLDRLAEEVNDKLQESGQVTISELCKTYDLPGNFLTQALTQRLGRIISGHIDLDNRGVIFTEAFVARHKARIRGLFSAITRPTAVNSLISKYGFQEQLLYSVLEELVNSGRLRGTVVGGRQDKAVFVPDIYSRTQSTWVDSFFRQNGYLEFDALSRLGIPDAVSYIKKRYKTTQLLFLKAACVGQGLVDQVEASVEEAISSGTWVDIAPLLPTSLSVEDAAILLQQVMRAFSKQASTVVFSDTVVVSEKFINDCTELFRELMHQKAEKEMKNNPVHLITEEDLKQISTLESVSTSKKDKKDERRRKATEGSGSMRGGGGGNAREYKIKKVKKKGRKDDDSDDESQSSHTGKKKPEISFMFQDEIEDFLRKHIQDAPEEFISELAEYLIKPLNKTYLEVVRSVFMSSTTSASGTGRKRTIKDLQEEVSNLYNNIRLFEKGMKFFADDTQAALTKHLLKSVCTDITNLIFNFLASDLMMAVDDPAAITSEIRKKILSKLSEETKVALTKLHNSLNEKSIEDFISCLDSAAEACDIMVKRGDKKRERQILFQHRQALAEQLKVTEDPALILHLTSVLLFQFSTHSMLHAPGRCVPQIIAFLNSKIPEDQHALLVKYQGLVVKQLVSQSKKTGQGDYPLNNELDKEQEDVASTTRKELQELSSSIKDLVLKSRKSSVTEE
UniProt Q04637: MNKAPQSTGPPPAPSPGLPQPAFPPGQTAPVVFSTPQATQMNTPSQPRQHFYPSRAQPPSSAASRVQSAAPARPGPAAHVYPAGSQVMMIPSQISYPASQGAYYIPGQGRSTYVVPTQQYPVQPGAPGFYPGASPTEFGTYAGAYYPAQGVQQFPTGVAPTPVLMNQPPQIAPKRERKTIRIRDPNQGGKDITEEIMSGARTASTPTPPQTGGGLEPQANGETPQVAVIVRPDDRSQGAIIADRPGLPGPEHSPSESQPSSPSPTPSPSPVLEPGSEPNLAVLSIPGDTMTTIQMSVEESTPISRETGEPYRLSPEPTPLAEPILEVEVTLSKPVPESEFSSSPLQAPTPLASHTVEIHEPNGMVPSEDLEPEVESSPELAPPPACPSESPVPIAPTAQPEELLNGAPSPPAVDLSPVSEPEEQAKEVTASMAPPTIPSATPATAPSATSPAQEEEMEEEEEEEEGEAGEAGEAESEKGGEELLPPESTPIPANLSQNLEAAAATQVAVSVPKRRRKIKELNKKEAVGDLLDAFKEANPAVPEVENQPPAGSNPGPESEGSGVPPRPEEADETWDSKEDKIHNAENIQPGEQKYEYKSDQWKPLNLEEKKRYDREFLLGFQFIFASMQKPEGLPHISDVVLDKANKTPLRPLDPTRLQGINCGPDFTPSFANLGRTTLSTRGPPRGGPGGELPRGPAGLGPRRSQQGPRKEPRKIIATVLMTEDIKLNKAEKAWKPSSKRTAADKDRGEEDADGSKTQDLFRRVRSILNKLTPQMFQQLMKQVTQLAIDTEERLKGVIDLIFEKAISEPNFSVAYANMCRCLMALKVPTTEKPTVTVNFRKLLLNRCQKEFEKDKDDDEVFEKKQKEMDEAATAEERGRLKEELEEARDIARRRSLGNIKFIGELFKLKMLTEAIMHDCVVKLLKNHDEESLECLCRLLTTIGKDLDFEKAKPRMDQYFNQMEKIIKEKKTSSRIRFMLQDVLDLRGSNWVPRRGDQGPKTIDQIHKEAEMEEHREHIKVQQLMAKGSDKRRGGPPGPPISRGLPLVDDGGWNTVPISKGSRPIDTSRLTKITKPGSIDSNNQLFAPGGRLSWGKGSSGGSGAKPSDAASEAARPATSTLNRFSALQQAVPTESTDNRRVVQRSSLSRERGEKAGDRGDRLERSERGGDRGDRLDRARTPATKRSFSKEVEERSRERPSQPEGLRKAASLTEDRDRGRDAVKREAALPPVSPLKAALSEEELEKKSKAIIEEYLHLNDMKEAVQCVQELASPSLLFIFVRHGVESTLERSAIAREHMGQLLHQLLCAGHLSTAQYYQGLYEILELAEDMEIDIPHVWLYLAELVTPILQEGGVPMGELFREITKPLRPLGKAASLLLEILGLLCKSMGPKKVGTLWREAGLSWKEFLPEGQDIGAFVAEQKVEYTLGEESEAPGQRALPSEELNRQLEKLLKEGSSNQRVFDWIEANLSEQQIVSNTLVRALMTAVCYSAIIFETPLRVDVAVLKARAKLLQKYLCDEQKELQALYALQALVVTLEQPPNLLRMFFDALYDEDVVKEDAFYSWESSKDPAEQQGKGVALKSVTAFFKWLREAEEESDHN

Key:
[1] = molecular target: FLAG-BPLF1 (vDUB, N-terminal domain of the Epstein-Barr virus large tegument protein BPLF1) (Epstein-Barr virus) (UniProt P03186); assay: co-IP; HEK293T harvested 24 h after transfection; lysates incubated with anti-FLAG agarose affinity gel for 3 h at 4°C; immunoblot
[2] = molecular target: UFL1 (UFM1 specific ligase 1), endogenous (human (endogenous in HEK293T)) (UniProt O94874); assay: co-IP
[3] = molecular target: T1, DDRGK1 (DDRGK domain containing 1), endogenous (human (endogenous in HEK293T)) (UniProt Q96HY6); assay: co-IP
T1 sequence: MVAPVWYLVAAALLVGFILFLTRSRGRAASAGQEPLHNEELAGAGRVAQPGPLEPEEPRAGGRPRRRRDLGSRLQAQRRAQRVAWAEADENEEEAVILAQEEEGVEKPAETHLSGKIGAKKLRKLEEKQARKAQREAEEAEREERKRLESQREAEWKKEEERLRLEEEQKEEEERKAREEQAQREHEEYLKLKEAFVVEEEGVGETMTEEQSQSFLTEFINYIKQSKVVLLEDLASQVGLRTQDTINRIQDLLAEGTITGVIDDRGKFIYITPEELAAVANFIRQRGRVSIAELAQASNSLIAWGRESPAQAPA

[4] = molecular target: CDK5RAP3 (CDK5 regulatory subunit associated protein 3), endogenous (human (endogenous in HEK293T)) (UniProt Q96JB5); assay: co-IP
MBP-UFL1 = MBP-UFL1 (UniProt O94874); assay: pull-down; equimolar purified bacterially expressed His-BPLF1 and MBP-UFL1 mixed; affinity isolation of the HIS and MBP tags from equal aliquots; Western blot; both purified

Q: “EIF4G1, endogenous (from UniProt Q04637 1-1599)” was tested. Which binding [1] did it give?
A: binds

Q: Which results are given for “FLAG-BPLF1 (vDUB, N-terminal domain of the Epstein-Barr virus large tegument protein BPLF1) (from UniProt P03186 1-235) (domain or fragment)”?
A: binding [2]: binds; binding [3]: binds; binding [4]: binds

Q: How did the binding (MBP-UFL1) turn out when “His-BPLF1 (1–235) (from UniProt P03186 1-235) (domain or fragment)” was run?
A: binds weakly
